Not every detail of the peptide structures is certain; ends, links or a residue may be inferred.
Key:
[1] = format: physicochemical; settings: 0% relative humidity, 25° C.
Source text: Preferably, the anhydrates or ansolvates according to the invention and especially the crystalline form A1 can be characterised, alternatively or additionally, by dynamic vapour sorption experiments. The results can be obtained by standard techniques as described in Rolf Hilfiker, ‘Polymorphism in the Pharmaceutical Industry’, Wiley-VCH. Weinheim 2006 (Chapter 9: Water Vapour Sorption, and references therein). […] Eur. criteria.
Preferably, the tetrasolvates according to the invention, more preferably the tetrahydrates according to the invention and especially the crystalline form S3 can be characterised, alternatively or additionally, by dynamic vapour sorption experiments. The results can be obtained by standard techniques as described in Rolf Hilfiker, ‘Polymorphism in the Pharmaceutical Industry’, Wiley-VCH. Weinheim 2006 (Chapter 9: Water Vapour Sorption, and references therein).
Dynamic Vapor Sorption measurements are preferably obtained on a SMS DVS Intrinsic system. […]
A SMS DVS Intrinsic is used for the dynamic vapour experiments. […] For a Cilengitide Dihydrate Di-Methanolate, the calculated Methanol content equals 9.3 wt %.
A SMS DVS Intrinsic is used for the dynamic vapour experiments. […] For a Cilengitide Dihydrate Di-Ethanolate, the calculated Ethanol content equals 12.5 wt %.

[2] = Conditioning of amorphous Cilengitide under mixed water-ethanol atmospheres (stoichiometry by KF, HS-GC, NMR); format: physicochemical
Source text: Stoichiometries as determined by Karl-Fischer titration (KF) for quantification of water and head space gas-chromatography (HS-GC) (and nuclear magnetic resonance spectroscopy (NMR)) for quantification of ethanol are depicted in Table 3. In the table also points representing stochiometries with more than 4 molecules of water per molecule of Cilengitide are visible. As there is no space for more than 4 molecules of water in the crystal lattice excess amounts of more than 4 molecules of water represent adsorbed moisture.
Also the modifications and the lattice parameters from indexing of the diffractograms are compiled in Table 3.

[3] = per 1 mol Cil, EtOH liquid phase 0 v %
[4] = per 1 mol Cil, EtOH liquid phase 1 v %
[5] = per 1 mol Cil, EtOH liquid phase 2.5 v %
[6] = per 1 mol Cil, EtOH liquid phase 5 v %

SMILES: CC(C)[C@H]1C(=O)N[C@@H](CCCNC(=N)N)C(=O)NCC(=O)N[C@@H](CC(=O)O)C(=O)N[C@H](Cc2ccccc2)C(=O)N1C [crystalline form S3, cyclo-(Arg-Gly-Asp-DPhe-NMe-Val)]
- Loss of water molecules within the initial drying step [1]: ca. 9 % by weight
- H2O KF ([2]; EtOH liquid phase 0 v %): 13.1 wt %
- EtOH HS-GC ([2]; EtOH liquid phase 1 v %): 0.5 wt %
- H2O KF ([2]; EtOH liquid phase 1 v %): 14.1 wt %
- Σ TG ([2]; EtOH liquid phase 1 v %): 13.2 wt %
- EtOH HS-GC ([2]; EtOH liquid phase 2.5 v %): 1.2 wt %
- H2O KF ([2]; EtOH liquid phase 2.5 v %): 12.5 wt %
- Σ TG ([2]; EtOH liquid phase 2.5 v %): 13.3 wt %
- EtOH HS-GC ([2]; EtOH liquid phase 5 v %): 2.0 wt %
- H2O KF ([2]; EtOH liquid phase 5 v %): 11.3 wt %
- Σ TG ([2]; EtOH liquid phase 5 v %): 12.7 wt %
- EtOH HS-GC [2, 3]: 0.0 mol
- H2O KF [2, 3]: 4.9 mol
- EtOH HS-GC [2, 4]: 0.1 mol
- H2O KF [2, 4]: 5.4 mol
- EtOH HS-GC [2, 5]: 0.2 mol
- EtOH NMR [2, 5]: 0.2 mol
- H2O KF [2, 5]: 4.7 mol
- EtOH HS-GC [2, 6]: 0.3 mol
- H2O KF [2, 6]: 4.2 mol
